Assay in all cases: log2 fold change, soluble protein after heating vs DMSO (PISA); higher = thermal stabilisation; K562 cells, 10 uM, 30 min; active = over 0.2 and 3.5 SD of the protein, either way, in both replicates (recomputed)
Compound in assay [1]: C1=CC=C(C=C1)[C@H](COC2=CC3=C(C=C2)NC(=O)N3)NC(=O)C4=CC=CN(C4=O)CC5=CC(=C(C=C5)F)F
The gist of the method: (§1)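 K562 cells at 2×10^6 cells/mL were treated for 30 min with 10 μM compound, and aliquots were heated for 3 min over 48°C-58°C before pooling. Extraction used PBS with 0.5% NP-40 at 4°C, and soluble protein was the supernatant after 21,000xg for 90 min, measured by TMTpro 16plex LC-MS/MS with channel sums equalised. Thermal stability values, relative to control samples and from duplicates, are log2 fold changes.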

The chains behind the UniProt entries cited, without tags or fusion partners. Where a name states a change or a piece, a line headed by the entry shows the natural chain unless it says otherwise.
UniProt Q4G0I0: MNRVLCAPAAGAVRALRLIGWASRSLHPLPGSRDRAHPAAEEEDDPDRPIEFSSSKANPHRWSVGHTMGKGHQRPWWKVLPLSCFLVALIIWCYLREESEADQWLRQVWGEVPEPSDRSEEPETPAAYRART
UniProt Q8IWD4: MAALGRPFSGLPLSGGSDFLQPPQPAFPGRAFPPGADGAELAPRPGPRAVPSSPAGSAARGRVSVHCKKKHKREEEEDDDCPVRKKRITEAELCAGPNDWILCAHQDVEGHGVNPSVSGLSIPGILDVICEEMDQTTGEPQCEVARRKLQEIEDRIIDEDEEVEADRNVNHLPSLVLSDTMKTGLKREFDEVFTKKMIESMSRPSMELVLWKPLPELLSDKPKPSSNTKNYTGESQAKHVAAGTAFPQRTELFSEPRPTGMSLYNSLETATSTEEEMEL
UniProt O15446, whole entry, looked up: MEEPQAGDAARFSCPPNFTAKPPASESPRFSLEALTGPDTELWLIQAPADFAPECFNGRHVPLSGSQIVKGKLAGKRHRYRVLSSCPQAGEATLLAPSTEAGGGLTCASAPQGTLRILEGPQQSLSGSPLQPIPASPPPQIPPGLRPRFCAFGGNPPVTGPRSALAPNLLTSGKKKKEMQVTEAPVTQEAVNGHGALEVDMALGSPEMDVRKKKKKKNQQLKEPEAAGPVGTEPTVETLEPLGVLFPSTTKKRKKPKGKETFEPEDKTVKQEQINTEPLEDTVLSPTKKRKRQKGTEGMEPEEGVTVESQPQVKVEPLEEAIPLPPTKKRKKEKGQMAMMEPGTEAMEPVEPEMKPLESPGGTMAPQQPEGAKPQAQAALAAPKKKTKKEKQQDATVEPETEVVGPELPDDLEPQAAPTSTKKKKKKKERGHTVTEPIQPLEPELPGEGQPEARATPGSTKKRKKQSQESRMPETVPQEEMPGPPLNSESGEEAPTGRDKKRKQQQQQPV
UniProt Q96ER9: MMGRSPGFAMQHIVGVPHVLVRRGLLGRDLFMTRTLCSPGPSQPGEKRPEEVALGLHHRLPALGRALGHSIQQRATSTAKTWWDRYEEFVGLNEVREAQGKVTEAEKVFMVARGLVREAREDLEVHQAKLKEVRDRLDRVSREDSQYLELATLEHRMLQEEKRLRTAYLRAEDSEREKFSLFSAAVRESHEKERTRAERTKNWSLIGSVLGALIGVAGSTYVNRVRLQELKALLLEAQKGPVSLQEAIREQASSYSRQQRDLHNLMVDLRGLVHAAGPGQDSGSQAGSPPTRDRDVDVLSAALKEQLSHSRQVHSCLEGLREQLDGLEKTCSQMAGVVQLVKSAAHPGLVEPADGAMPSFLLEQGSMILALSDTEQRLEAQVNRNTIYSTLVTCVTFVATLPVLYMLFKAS
UniProt Q8IWY9: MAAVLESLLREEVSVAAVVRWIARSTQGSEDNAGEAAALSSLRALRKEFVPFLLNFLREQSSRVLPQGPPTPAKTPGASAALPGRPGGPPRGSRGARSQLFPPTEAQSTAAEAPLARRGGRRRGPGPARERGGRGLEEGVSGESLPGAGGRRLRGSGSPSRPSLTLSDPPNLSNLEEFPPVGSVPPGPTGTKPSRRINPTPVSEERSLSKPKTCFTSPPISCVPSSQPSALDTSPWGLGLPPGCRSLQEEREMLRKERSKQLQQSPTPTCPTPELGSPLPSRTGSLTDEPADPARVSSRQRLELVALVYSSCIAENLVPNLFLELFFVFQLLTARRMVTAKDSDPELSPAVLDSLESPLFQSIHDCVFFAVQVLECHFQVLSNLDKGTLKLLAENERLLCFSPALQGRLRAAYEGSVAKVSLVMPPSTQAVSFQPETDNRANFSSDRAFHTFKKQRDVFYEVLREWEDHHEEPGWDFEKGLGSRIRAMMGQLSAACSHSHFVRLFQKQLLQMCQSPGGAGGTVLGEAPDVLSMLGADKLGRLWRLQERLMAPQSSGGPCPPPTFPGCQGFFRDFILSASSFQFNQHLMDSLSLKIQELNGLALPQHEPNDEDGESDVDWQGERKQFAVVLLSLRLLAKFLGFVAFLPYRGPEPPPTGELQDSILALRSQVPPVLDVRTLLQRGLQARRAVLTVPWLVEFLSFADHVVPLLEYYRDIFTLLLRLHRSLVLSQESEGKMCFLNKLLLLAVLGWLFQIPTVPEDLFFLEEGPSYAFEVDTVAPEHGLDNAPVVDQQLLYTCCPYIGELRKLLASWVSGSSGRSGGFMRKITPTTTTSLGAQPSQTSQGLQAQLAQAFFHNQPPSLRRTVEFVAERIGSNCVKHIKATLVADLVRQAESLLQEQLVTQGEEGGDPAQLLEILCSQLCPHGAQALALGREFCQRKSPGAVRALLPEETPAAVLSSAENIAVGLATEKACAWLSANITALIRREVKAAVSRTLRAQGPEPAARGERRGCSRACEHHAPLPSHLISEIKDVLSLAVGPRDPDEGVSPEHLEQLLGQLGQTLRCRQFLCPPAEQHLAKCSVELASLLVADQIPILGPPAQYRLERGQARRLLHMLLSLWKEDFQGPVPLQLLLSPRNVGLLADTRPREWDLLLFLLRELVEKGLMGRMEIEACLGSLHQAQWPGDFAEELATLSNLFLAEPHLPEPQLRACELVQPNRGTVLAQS
UniProt Q8WUD4: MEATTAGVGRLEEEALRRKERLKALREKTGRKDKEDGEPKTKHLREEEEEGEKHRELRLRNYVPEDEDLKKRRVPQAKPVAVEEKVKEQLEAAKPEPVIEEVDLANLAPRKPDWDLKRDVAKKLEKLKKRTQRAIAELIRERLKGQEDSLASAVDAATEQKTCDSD
UniProt Q9GZT6: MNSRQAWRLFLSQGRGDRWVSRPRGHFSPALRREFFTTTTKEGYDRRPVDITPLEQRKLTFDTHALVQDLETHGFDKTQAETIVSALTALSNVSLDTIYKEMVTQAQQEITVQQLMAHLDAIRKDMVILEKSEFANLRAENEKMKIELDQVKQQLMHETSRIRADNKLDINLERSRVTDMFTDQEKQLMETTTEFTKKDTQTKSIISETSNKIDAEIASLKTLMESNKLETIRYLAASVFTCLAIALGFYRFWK
UniProt Q2TAC2: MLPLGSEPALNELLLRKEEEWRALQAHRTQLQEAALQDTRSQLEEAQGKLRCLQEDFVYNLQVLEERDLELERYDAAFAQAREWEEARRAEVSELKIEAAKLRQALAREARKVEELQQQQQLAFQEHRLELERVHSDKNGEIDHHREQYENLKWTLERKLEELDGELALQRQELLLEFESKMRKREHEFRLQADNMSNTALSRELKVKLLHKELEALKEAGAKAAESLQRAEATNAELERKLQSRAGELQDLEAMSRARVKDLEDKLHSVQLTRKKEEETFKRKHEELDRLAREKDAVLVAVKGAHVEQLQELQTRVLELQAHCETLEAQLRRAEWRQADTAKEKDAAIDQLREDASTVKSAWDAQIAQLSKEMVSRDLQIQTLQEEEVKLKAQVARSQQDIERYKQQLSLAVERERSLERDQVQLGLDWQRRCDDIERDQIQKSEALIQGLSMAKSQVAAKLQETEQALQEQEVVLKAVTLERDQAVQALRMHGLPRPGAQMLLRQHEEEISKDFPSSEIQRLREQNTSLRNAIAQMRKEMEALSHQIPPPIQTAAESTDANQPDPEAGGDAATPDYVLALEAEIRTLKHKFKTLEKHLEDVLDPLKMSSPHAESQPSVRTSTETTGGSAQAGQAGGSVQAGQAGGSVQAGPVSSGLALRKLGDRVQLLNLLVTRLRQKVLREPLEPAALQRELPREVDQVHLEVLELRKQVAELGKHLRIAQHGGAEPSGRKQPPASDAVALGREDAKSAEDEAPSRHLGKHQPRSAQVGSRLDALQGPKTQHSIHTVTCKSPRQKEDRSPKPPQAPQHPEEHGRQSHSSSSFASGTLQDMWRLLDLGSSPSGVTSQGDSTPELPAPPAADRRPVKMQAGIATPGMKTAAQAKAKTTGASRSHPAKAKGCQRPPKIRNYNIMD
UniProt P48509: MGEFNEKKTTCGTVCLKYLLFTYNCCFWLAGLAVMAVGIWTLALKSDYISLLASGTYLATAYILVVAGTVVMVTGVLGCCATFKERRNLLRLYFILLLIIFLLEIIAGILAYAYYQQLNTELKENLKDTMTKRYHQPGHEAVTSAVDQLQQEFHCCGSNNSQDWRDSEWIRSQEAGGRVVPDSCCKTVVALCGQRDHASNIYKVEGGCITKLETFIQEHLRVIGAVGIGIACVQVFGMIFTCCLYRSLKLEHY

Compound in assay [2]: CC1=C(SC2=C1C(=N[C@H](C3=NN=C(N32)C)CC(=O)N)C4=CC=C(C=C4)Cl)C
An outline of the steps: as §1

Compound in assay [3]: CC1=C2C(=CC=C1)N=C(N(C2=O)C3=CC=CC=C3C)CN4C=NC5=C(N=CN=C54)N
The gist of the method: as §1

Compound in assay [4]: Cc1sc2c(c1C)C(c1ccc(Cl)cc1)=N[C@@H](CC(=O)OC(C)(C)C)c1nnc(C)n1-2
The gist of the method:
as §1

Compound in assay [5]: c1ccc([C@@H]2C[C@H]2NC2CCNCC2)cc1
An outline of the steps: as §1

From the supplement of paper PMC10849652 come the findings set out here.

Some of the results follow.

Regarding CCSMST1 (UniProt Q4G0I0), the log2 fold change in assay [1] is inactive: -0.007; in assay [2], inactive: 0.064; in assay [3], inactive: 0.054; in assay [4] it was inactive: -0.083; in assay [5], inactive: -0.037.
CCDC117 (UniProt Q8IWD4): the log2 fold change in assay [1] was inactive: 0.051; in assay [2] it was inactive: -0.005; in assay [3] it was inactive: -0.025; in assay [4], inactive: 0.166; in assay [5] it was inactive: 0.028.
As to CD3EAP isoform 2 (UniProt O15446), the log2 fold change in assay [1] is inactive: 0.025; in assay [2] it was inactive: -0.037; in assay [3] it was inactive: -0.148; in assay [4], inactive: 0.103; in assay [5], inactive: 0.052.
For the target CCDC51 (UniProt Q96ER9), the log2 fold change in assay [1] was inactive: 0.022; in assay [2], inactive: 0.053; in assay [3] it was inactive: 0.02; in assay [4], inactive: -0.021; in assay [5], inactive: -0.046.
For CDAN1 (UniProt Q8IWY9), the log2 fold change was inactive: -0.035 in assay [1]; inactive: -0.049 in assay [2]; inactive: 0.051 in assay [3]; inactive: 0.091 in assay [4]; inactive: 0.022 in assay [5].
Regarding CCDC12 (UniProt Q8WUD4), the log2 fold change in assay [1] is inactive: -0.018; in assay [2], inactive: 0.022; in assay [3], inactive: -0.045; in assay [4], inactive: -0.002; in assay [5], inactive: 0.022.
On to CCDC90B (UniProt Q9GZT6), for which the log2 fold change in assay [1] is inactive: -0.007; in assay [2], inactive: 0.052; in assay [3] it was inactive: 0.011; in assay [4], inactive: -0.078; in assay [5], inactive: -0.024.
As for CCDC57 (UniProt Q2TAC2), the log2 fold change in assay [1] is inactive: 0.015; in assay [2], active: 0.262; in assay [3], inactive: 0.047; in assay [4], inactive: -0.161; in assay [5], inactive: -0.139.
As for CD151 (UniProt P48509), the log2 fold change in assay [1] is inactive: -0.126; in assay [2], inactive: 0.049; in assay [3] it was inactive: 0.031; in assay [4], inactive: -0.046; in assay [5], inactive: 0.101.
